Data source: PubChem BioAssay AID1259254 (NCATS, 2017)

Screen: 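Genome-wide screen for genes that prevent DNA re-replication in cancer cells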 (primary screen)
Cells: human HCT116 colorectal cancer cells
Reagent: single siRNA against human genes
Timing: 3 days
Measured: 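Imaged Hoechst DNA stain sorts each cell into a cycle phase by DNA amount; per plate, G2 fraction set to 0% for non-targeting and 100% for GMNN siRNA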
Scale: G2 robust z-score and G2 cells, % of GMNN control: higher = more G2 cells, more excess DNA replication; raw share of cells in G2: higher = larger share of cells with G2 DNA content
Active means: 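Active siRNAs have a G2 robust z of 5 or more median absolute deviations over the median, which in these data means about 38% or higher of GMNN control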
The whole screen tested about 59,000 reagents; below is a part drawn at random. About 1,550 of all reagents (2.6%) were called active. 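G2 share is only a proxy for re-replication; each gene was hit by three separate siRNAs, and active genes were retested.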 The raw values are shown without normalisation. Unmarked entries are inactive. The record does not give: the amount of reagent.

| target | PubChem SID | G2 robust z-score | G2 cells, % of GMNN control | raw share of cells in G2 (%) |
| --- | --- | --- | --- | --- |
| TIGD6 (tigger transposable element derived 6) | SID160750970 | 0.732 | 8.12 | 7.79 |
| TIGD6 (tigger transposable element derived 6) | SID160750971 | -0.772 | -2.47 | 3.3 |
| TIGD6 (tigger transposable element derived 6) | SID160750972 | 0.0674 | 3.44 | 6.86 |
| TIGD6 (tigger transposable element derived 6) | SID160771660 | -0.852 | -3.03 | 2.39 |
| TIGD6 (tigger transposable element derived 6) | SID160771661 | 0.11 | 3.74 | 4.19 |
| TIGD6 (tigger transposable element derived 6) | SID160771662 | -0.932 | -3.59 | 2.24 |
| HYPK (huntingtin interacting protein K) | SID160736934 | -0.34 | 0.577 | 4.63 |
| HYPK (huntingtin interacting protein K) | SID160736935 | -0.756 | -2.35 | 2.92 |
| HYPK (huntingtin interacting protein K) | SID160736936 | -0.754 | -2.34 | 2.48 |
| EPB41L4B (erythrocyte membrane protein band 4.1 like 4B) | SID160741934 | -0.827 | -2.85 | 2.58 |
| EPB41L4B (erythrocyte membrane protein band 4.1 like 4B) | SID160741935 | -0.218 | 1.44 | 4.88 |
| EPB41L4B (erythrocyte membrane protein band 4.1 like 4B) | SID160741936 | 0.707 | 7.94 | 5.82 |
| TLK1 (tousled like kinase 1) | SID160723317 | 1.35 | 12.4 | 9.46 |
| TLK1 (tousled like kinase 1) | SID160723318 | 0.244 | 4.69 | 6.89 |
| TLK1 (tousled like kinase 1) | SID160723319 | 3.34 | 26.5 | 12.2 |
| DNTT (DNA nucleotidylexotransferase) | SID160755664 | 0.361 | 5.51 | 6.93 |
| DNTT (DNA nucleotidylexotransferase) | SID160755675 | 1.96 | 16.7 | 11.1 |
| DNTT (DNA nucleotidylexotransferase) | SID160755685 | 2.08 | 17.6 | 10.2 |
| SLC5A3 | SID160716842 | 0.658 | 7.6 | 6.47 |
| SLC5A3 | SID160716843 | -0.362 | 0.42 | 5.82 |
| SLC5A3 | SID160716844 | -0.0248 | 2.79 | 5.5 |
| STX18 (syntaxin 18) | SID160741430 | 0.136 | 3.93 | 7.73 |
| STX18 (syntaxin 18) | SID160741431 | -0.284 | 0.97 | 4.6 |
| STX18 (syntaxin 18) | SID160741432 | -0.478 | -0.397 | 3.65 |
| EIF2B2 (eukaryotic translation initiation factor 2B subunit beta) | SID160721076 | 0.7 | 7.89 | 8.12 |
| EIF2B2 (eukaryotic translation initiation factor 2B subunit beta) | SID160721077 | 3.28 | 26 | 14 |
| EIF2B2 (eukaryotic translation initiation factor 2B subunit beta) | SID160721078 | -0.18 | 1.7 | 5.86 |
| CEACAM3 (CEA cell adhesion molecule 3) | SID160732297 | -0.129 | 2.06 | 4.33 |
| CEACAM3 (CEA cell adhesion molecule 3) | SID160742235 | 0.153 | 4.05 | 7.2 |
| CEACAM3 (CEA cell adhesion molecule 3) | SID160742246 | 0.363 | 5.52 | 6.11 |

Records above whose gene name begins with T or t:
| target | PubChem SID | G2 robust z-score | G2 cells, % of GMNN control | raw share of cells in G2 (%) |
| --- | --- | --- | --- | --- |
| TIGD6 (tigger transposable element derived 6) | SID160750970 | 0.732 | 8.12 | 7.79 |
| TIGD6 (tigger transposable element derived 6) | SID160750971 | -0.772 | -2.47 | 3.3 |
| TIGD6 (tigger transposable element derived 6) | SID160750972 | 0.0674 | 3.44 | 6.86 |
| TIGD6 (tigger transposable element derived 6) | SID160771660 | -0.852 | -3.03 | 2.39 |
| TIGD6 (tigger transposable element derived 6) | SID160771661 | 0.11 | 3.74 | 4.19 |
| TIGD6 (tigger transposable element derived 6) | SID160771662 | -0.932 | -3.59 | 2.24 |
| TLK1 (tousled like kinase 1) | SID160723317 | 1.35 | 12.4 | 9.46 |
| TLK1 (tousled like kinase 1) | SID160723318 | 0.244 | 4.69 | 6.89 |
| TLK1 (tousled like kinase 1) | SID160723319 | 3.34 | 26.5 | 12.2 |

Additional entries:
| target | PubChem SID | G2 robust z-score | G2 cells, % of GMNN control | raw share of cells in G2 (%) |
| --- | --- | --- | --- | --- |
| DNMT3L (DNA methyltransferase 3 like) | SID160739365 | 3.94 | 30.7 | 20.1 |
| DNMT3L (DNA methyltransferase 3 like) | SID160739367 | -1.01 | -4.11 | 2.64 |
| DNMT3L (DNA methyltransferase 3 like) | SID160739368 | -0.374 | 0.335 | 4.3 |
| PTPRE (protein tyrosine phosphatase receptor type E) | SID160715394 | 1.22 | 11.6 | 8.56 |
| PTPRE (protein tyrosine phosphatase receptor type E) | SID160715395 | -0.465 | -0.306 | 4.21 |
| PTPRE (protein tyrosine phosphatase receptor type E) | SID160715396 | -0.662 | -1.69 | 2.99 |
| DLX2 (distal-less homeobox 2) | SID160754733 | 2.74 | 22.2 | 12.9 |
| DLX2 (distal-less homeobox 2) | SID160754741 | 0.24 | 4.65 | 6.69 |
| DLX2 (distal-less homeobox 2) | SID160754752 | 1.42 | 13 | 8.56 |
| RHEX (regulator of hemoglobinization and erythroid cell expansion) | SID160767848 | -0.244 | 1.25 | 4.1 |
| RHEX (regulator of hemoglobinization and erythroid cell expansion) | SID160767849 | 0.0239 | 3.14 | 4.61 |
| RHEX (regulator of hemoglobinization and erythroid cell expansion) | SID160767851 | -0.958 | -3.77 | 1.84 |
| NRAD1 (non-coding RNA in the aldehyde dehydrogenase 1A pathway) | SID160755944 | 0.443 | 6.09 | 6.53 |
| NRAD1 (non-coding RNA in the aldehyde dehydrogenase 1A pathway) | SID160755945 | 0.409 | 5.84 | 5.07 |
| NRAD1 (non-coding RNA in the aldehyde dehydrogenase 1A pathway) | SID160755946 | -0.617 | -1.37 | 1.42 |
| ZNF790 (zinc finger protein 790) | SID160765884 | 1.41 | 12.9 | 7.53 |
| ZNF790 (zinc finger protein 790) | SID160765885 | 1.31 | 12.2 | 7.4 |
| ZNF790 (zinc finger protein 790) | SID160765886 | -0.45 | -0.201 | 3.45 |
| ZNF724 (zinc finger protein 724) | SID160767800 | 0.487 | 6.39 | 6.09 |
| ZNF724 (zinc finger protein 724) | SID160767802 | -0.897 | -3.34 | 2.15 |
| ZNF724 (zinc finger protein 724) | SID160767803 | 1.85 | 16 | 8.55 |
| INPP1 (inositol polyphosphate-1-phosphatase) | SID160775858 | -0.981 | -3.94 | 3.52 |
| INPP1 (inositol polyphosphate-1-phosphatase) | SID160775859 | -0.464 | -0.296 | 4.21 |
| INPP1 (inositol polyphosphate-1-phosphatase) | SID160775860 | -0.14 | 1.98 | 4.09 |
| AKR1B10 (aldo-keto reductase family 1 member B10) | SID160731578 | 0.188 | 4.29 | 8.31 |
| AKR1B10 (aldo-keto reductase family 1 member B10) | SID160745497 | 0.463 | 6.23 | 6.93 |
| AKR1B10 (aldo-keto reductase family 1 member B10) | SID160745498 | 0.0727 | 3.48 | 5.69 |
| EZH1 (enhancer of zeste 1 polycomb repressive complex 2 subunit) | SID160762799 | 3.55 | 27.9 | 13.6 |
| EZH1 (enhancer of zeste 1 polycomb repressive complex 2 subunit) | SID160762810 | 0.111 | 3.75 | 6.6 |
| EZH1 (enhancer of zeste 1 polycomb repressive complex 2 subunit) | SID160762821 | -0.261 | 1.13 | 5.69 |
| KCNJ11 (potassium inwardly rectifying channel subfamily J member 11) | SID160776190 | 4.38 | 33.8 | 17.6 |
| KCNJ11 (potassium inwardly rectifying channel subfamily J member 11) | SID160776192 | 1.81 | 15.7 | 10.1 |
| KCNJ11 (potassium inwardly rectifying channel subfamily J member 11) | SID160776193 | 0.844 | 8.9 | 7.85 |
| CACNB1 (calcium voltage-gated channel auxiliary subunit beta 1) | SID160735425 | 2.15 | 18.1 | 11.9 |
| CACNB1 (calcium voltage-gated channel auxiliary subunit beta 1) | SID160735435 | 0.304 | 5.1 | 6.51 |
| CACNB1 (calcium voltage-gated channel auxiliary subunit beta 1) | SID160735445 | -1.18 | -5.32 | 2.3 |
| NECAB3 (N-terminal EF-hand calcium binding protein 3) | SID160747321 | -0.0453 | 2.65 | 5.73 |
| NECAB3 (N-terminal EF-hand calcium binding protein 3) | SID160747323 | 1.03 | 10.2 | 9.18 |
| NECAB3 (N-terminal EF-hand calcium binding protein 3) | SID160747324 | -1.13 | -4.98 | 1.38 |
